# Data as given in publication PMC8779140 (Pharmaceutics, 2022).
# Target: T1, SARS-CoV-2 PL^pro (Severe acute respiratory syndrome coronavirus 2, UniProt P0DTD1)
# T1 construct: The synthetic gene of SARS-CoV-2 PL^pro was cloned into the pET16b vector; made in house; host or cells: E. coli BL21(DE3)
# Assay: biochemical
structure (smiles),measurement,value
CC/C(=C(\c1ccccc1)c1ccc(OCCN(C)C)cc1)c1ccccc1 [Tamoxifen],IC50,41 ± 3.6 µM
